The values below come from article PMC12274846.

No constants are given. Whether binding was seen depends on the method and setting. In cells and extracts the contact can be indirect. Some binding calls cover weakened binding; strength is not graded here.

The assay has as its target early growth response 2 (Egr2) (human (endogenous in Hep3B)) (UniProt P11161). Briefly: co-IP; endogenous Egr1 or Egr2 immunoprecipitated (Universal Magnetic Co-IP kit, magnetic protein G beads, 2 h at 4 °C) from Hep3B whole-cell extracts (500 μg total protein) after 0, 2 or 8 h hypoxia (1% O2); immunoblotted for HIF-1α or HIF-2α. In general terms: A western blot detects proteins with antibodies after separation by electrophoresis.

As for “hypoxia inducible factor 2 alpha (HIF-2α) (from UniProt Q99814 1-870)”, the binding entry is “binds”. For the substance “hypoxia inducible factor 1 alpha (HIF-1α) (from UniProt Q16665 1-826)”, the binding result is listed as “no binding”.
